Laboratory results as given in patent CN117736324A.
Positions count from the first letter of the chain named. No constants are given. Whether binding was seen depends on the method and setting. Some results given as binding are weak or reduced against the parent protein; the word gives no strength. Blank lines part the entries; values can stand above or below the binder they belong to.

Biological target: 食蟹猴Siglec-15-His (cynomolgus monkey)
Test: ELISA, cynomolgus Siglec-15-His coated

binding: binds
B1: 抗Siglec-15单克隆抗体HA-I (人源化抗体分子, human IgG1/Ck) (antibody, V domains shown)
VH: QVQLVQSGAEVKKPGASVKVSCKASGYTFTDYNMFWVRQAPGQRLEWIGYIYPDNGGTGYNQNFKSKATLTVDNSASTAYMELSSLRSEDTAVYYCARSEYDYFDYWGQGTLVTVSS
VL: DIVLTQSPSSLSASVGDRVTITCRASQDISNYLNWYQQKPGKAVKLLIYYTSRLHSGVPSRFSGSGSGTDYTFTISSLQPEDIATYFCQQGNTLPLTFGQGTKVELKR

binding: binds
B2: 人源化抗体分子HA-II (human IgG1/Ck) (antibody, V domains shown)
VH: B1 VH
VL: B1 VL with V3Q, V44P
